Changes are numbered by the printed parent chain. No constants are given. Whether binding was seen depends on the method and setting. A result given as binding can be weak or reduced; the word gives no strength. Blank lines part the entries; values can stand above or below the binder they belong to.
Target: cyno MAdCAM protein (cyno)
Test: ELISA

B3: MAdCAM antibody Table 1 clone 35 (scFv)
scFv: EVQLLESGGGLVQPGGSLRLSCAASGFSFSSYTMNWVRQAPGKGLEWVSFITSSSRTIYYADSVKGRFTISRDNSKNTLYLQMNSLRAEDTAVYYCARDRRGDYGDSWYFDLWGRGTLVTVSSGGGGSGGGGSGGGGSGGGGSEIVMTQSPATLSVSPGERATLSCRASQSVRNYLAWYQQKPGQAPRLLIYGASTRATGIPARFSGSGSGTEFTLTISSLQSEDFAVYYCQQYGSSPLTFGGGTKVEIK
binding: binds

B5: MAdCAM antibody Table 1 clone 27 (scFv)
scFv: QVQLVQSGAEVKKPGASVKVSCKASGYTFTGYYIHWVRQAPGQGLEWMGWMNPNSGNTGYAQKFQGRVTMTRDTSTSTVYMELSSLRSEDTAVYYCARDPGFLGYCSGGSCYDGWFDPWGQGTLVTVSSGGGGSGGGGSGGGGSGGGGSDIQMTQSPSSLSASVGDRVTITCRASQSISSYLHWYQQKPGKAPKLLIYAASSLQSGVPSRFSGSGSGTDFTLTISSLQPEDFATYYCQQSYTAPYTFGQGTKLEIK
binding: binds

B10: MAdCAM antibody Table 1 clone 31 (scFv)
scFv: QVQLVQSGAEVKKPGASVKVSCKASGYTFTSYYMHWVRQAPGQGLEWMGIINPSGGSTSYAQKFQGRVTMTRDTSTSTVYMELSSLRSEDTAVYYCARDTGYSYGRYYYYGMDVWGQGTLVTVSSGGGGSGGGGSGGGGSGGGGSDIQMTQSPSSLSASVGDRVTITCRASQSIGRWLAWYQQKPGKAPKLLIYDASNLQSGVPSRFSGSGSGTDFTLTISSLQPEDFATYYCQQSYSIPITFGQGTKVEIK
binding: binds

B11: MAdCAM antibody Table 1 clone 36 (scFv)
scFv: B10 scFv with S31G, Y32H, L120T, Q245G
binding: binds

B12: MAdCAM antibody Table 1 clone 38 (scFv)
scFv: EVQLLESGGGLVQPGGSLRLSCAASGFTFGSYSMSWVRQAPGKGLEWVSAIGTGGGTYYADSVKGRFTISRDNSKNTLYLQMNSLRAEDTAVYYCAKGTPYYYYYGMDVWGQGTMVTVSSGGGGSGGGGSGGGGSGGGGSDIQMTQSPSSLSASVGDRVTITCRASQPLSNWLAWYQQKPGKAPKLLIYAASSLQSGVPSRFSGSGSGTDFTLTISSLQPEDFATYYCQQAISFPLTFGGGTKVEIK
binding: binds

B13: MAdCAM antibody Table 1 clone 21 (scFv)
scFv: EVQLLESGGGLVQPGGSLRLSCAASGFTFSNAWMSWVRQAPGKGLEWVSTIVGNGGATYYADSVKGRFTISRDNSKNTLYLQMNSLRAEDTAVYYCARDNPLRWQGMDVWGQGTLVTVSSGGGGSGGGGSGGGGSGGGGSDIQMTQSPSSLSASVGDRVTITCRASQDISNYLNWYQQKPGKAPKLLIYAASSLQSGVPSRFSGSGSGTDFTLTISSLQPEDFATYYCQQSYSIPPTFGPGTKVDIK
binding: binds

B15: MAdCAM antibody Table 1 clone 25 (scFv)
scFv: QVQLVQSGAEVKKPGASVKVSCKASGYTLTTWYMYWVRQAPGQGLEWMGWINPNRGATNYAQKFQGRVTMTRDTSTSTVYMELSSLRSEDTAVYYCAKGDLWGAMDVWGQGTLVTVSSGGGGSGGGGSGGGGSGGGGSDIQMTQSPSSLSASVGDRVTITCRASDNIGSWLAWYQQKPGKAPKLLIYAASSLQSGVPSRFSGSGSGTDFTLTISSLQPEDFATYYCQQGYSTPPTFGQGTKVEIK
binding: binds

B16: MAdCAM antibody Table 1 clone 26 (scFv)
scFv: B15 scFv with L113T
binding: binds

B17: MAdCAM antibody Table 1 clone 30 (scFv)
scFv: B15 scFv
binding: binds

B18: MAdCAM antibody Table 1 clone 33 (scFv)
scFv: QVQLVQSGAEVKKPGASVKVSCKASGYTFTSYGISWVRQAPGQGLEWMGWMHPKSGDTGLTQKFQGRVTMTRDTSTSTVYMELSSLRSEDTAVYYCARDTPYYYYGMDVWGQGTTVTVSSGGGGSGGGGSGGGGSGGGGSDIQMTQSPSSLSASVGDRVTITCRASQSISSWLAWYQQKPGKAPKLLIYAASSLQSGVPSRFSGSGSGTDFTLTISSLQPEDFATYYCQQSYSVPITFGQGTKVEIK
binding: binds

B19: MAdCAM antibody Table 1 clone 17 (scFv)
scFv: EVQLLESGGGLVQPGGSLRLSCAASGFTFSDSAMHWVRQAPGKGLEWVSAISGSGSTIYYADSVKGRFTISRDNSKNTLYLQMNSLRAEDTAVYYCVSDIAVAGHWYFDLWGRGTLVTVSSGGGGSGGGGSGGGGSGGGGSDIQMTQSPSSLSASVGDRVTITCRASQSISTFLNWYQQKPGKAPKLLIYAASRLEGGVPSRFSGSGSGTDFTLTISSLQPEDFATYYCQQANSFPLTFGPGTKVDIK
binding: binds

B20: MAdCAM antibody Table 1 clone 29 (scFv)
scFv: QVQLVQSGAEVKKPGASVKVSCKASGYTFTSYYMHWVRQAPGQGLEWMAWMNPNSGNTGYAQKFQGRVTMTRDTSTSTVYMELSSLRSEDTAVYYCARDYDFWSGSLGYWGQGTLVTVSSGGGGSGGGGSGGGGSGGGGSDIQMTQSPSSLSASVGDRVTITCRASQGISNYLAWYQQKPGKAPKLLIYAASSLQSGVPSRFSGSGSGTDFTLTISSLQPEDFATYYCQQSYSTPWTFGQGTKVEIK
binding: binds

B21: MAdCAM antibody Table 1 clone 16 (scFv)
scFv: EVQLLESGGGLVQPGGSLRLSCAASGFTFEDYAMHWVRQAPGKGLEWVSYLNSDGGSTSYADSVKGRFTISRDNSKNTLYLQMNSLRAEDTAVYYCAKDYCTNGVCAFDYWGQGTLVTVSSGGGGSGGGGSGGGGSGGGGSDIQMTQSPSSLSASVGDRVTITCRASQSISTYLNWYQQKPGKAPKLLIYDASNLETGVPSRFSGSGSGTDFTLTISSLQPEDFATYYCQQSYTIPITFGQGTRLEIK
binding: binds

Continued, values first:

binding: binds
B1: MAdCAM antibody Table 1 clone 39 (scFv)
scFv: QVQLVQSGAEVKKPGASVKVSCKASGYTFTSYYMHWVRQAPGQGLEWMGWMNPNSGNTGYAQKFQGRVTMTRDTSTSTVYMELSSLRSEDTAVYYCARDLGYYDSSGYFGAFDIWGQGTTVTVSSGGGGSGGGGSGGGGSGGGGSDIQMTQSPSSLSASVGDRVTITCQSSEDISSSLNWYQQKPGKAPKLLIYAASSLQIGVPSRFSGSGSGTDFTLTISSLQPEDFATYYCQQTYSTPYTFGQGTKVEIK

binding: binds
B2: MAdCAM antibody Table 1 clone 40 (scFv)
scFv: QVQLVQSGAEVKKPGASVKVSCKASGYTFTSYGISWVRQAPGQGLEWMGIINPRGGSTIFAQKFQGRVTMTRDTSTSTVYMELSSLRSEDTAVYYCARGTRSSGWYGWFDPWGQGTLVTVSSGGGGSGGGGSGGGGSGGGGSDIQMTQSPSSLSASVGDRVTITCRASQGIGNWLAWYQQKPGKAPKLLIYAASNLETGVPSRFSGSGSGTDFTLTISSLQPEDFATYYCQQIHSYPLTFGGGTKVEIK

binding: binds
B4: MAdCAM antibody Table 1 clone 43 (scFv)
scFv: EVQLLESGGGLVQPGGSLRLSCAASGFTFDDFAMHWVRQAPGKGLEWVSGISGNGDSRYYADSVKGRFTISRDNSKNTLYLQMNSLRAEDTAVYYCARDASYGGNYGMDVWGQGTTVTVSSGGGGSGGGGSGGGGSGGGGSDIQMTQSPSSLSASVGDRVTITCQASQDIRNYLNWYQQKPGKAPKLLIYKASTLESGVPSRFSGSGSGTDFTLTISSLQPEDFATYYCQQANSFPLTFGPGTKVDIK

binding: binds
B6: MAdCAM antibody Table 1 clone 44 (scFv)
scFv: EVQLVESGGGLVKPGGSLRLSCAASGFTFSSYWMSWVRQAPGKGLEWVSAIGTGGGTYYAAPVKGRFTISRDDSKNTLYLQMNSLKTEDTAVYYCAREWLVPYYGMDVWGQGTTVTVSSGGGGSGGGGSGGGGSGGGGSDIQMTQSPSSLSASVGDRVTITCRASQSISRWLAWYQQKPGKAPKLLIYGASNLQSGVPSRFSGSGSGTDFTLTISSLQPEDFATYYCQQSYSTPWTFGQGTKVEIK

binding: binds
B7: MAdCAM antibody Table 1 clone 49 (scFv)
scFv: QVQLVQSGAEVKKPGASVKVSCKASGDTFTGYYIHWVRQAPGQGLEWMGWINPNSGGTNYAQKFQGRVTMTRDTSTSTVYMELSSLRSEDTAVYYCARSGLWLGSYYGMDVWGQGTLVTVSSGGGGSGGGGSGGGGSGGGGSDIQMTQSPSSLSASVGDRVTITCRASQTISIWLAWYQQKPGKAPKLLIYDASTLQSGVPSRFSGSGSGTDFTLTISSLQPEDFATYYCQQYSSYPLTFGQGTKVEIK

binding: binds
B8: MAdCAM antibody Table 1 clone 42 (scFv)
scFv: QVQLVQSGAEVKKPGSSVKVSCKASGGTLSRYGVSWVRQAPGQGLEWMGGIIPIFGTTNYAQKFQGRVTITADESTSTAYMELSSLRSEDTAVYYCARDRVYYDSSGYPTWYFDLWGRGTLVTVSSGGGGSGGGGSGGGGSGGGGSEIVMTQSPATLSVSPGERATLSCRASQSVSSSYLAWYQQKPGQAPRLLIYGASTRATGIPARFSGSGSGTEFTLTISSLQSEDFAVYYCQQYGSSPITFGQGTKVEIK

binding: binds
B9: MAdCAM antibody Table 1 clone 48 (scFv)
scFv: EVQLLESGGGLVQPGGSLRLSCAASGFTFSDHGMHWVRQAPGKGLEWVSVIYGGESTYYADSVKGRFTISRDNSKNTLYLQMNSLRAEDTAVYYCARDPAVAGGGIFDYWGQGTLVTVSSGGGGSGGGGSGGGGSGGGGSDIQMTQSPSSLSASVGDRVTITCRASQGISNYLAWYQQKPGKAPKLLIYDASNLETGVPSRFSGSGSGTDFTLTISSLQPEDFATYYCQQSYSTCYTFGQGTKLEIK

binding: binds
B14: MAdCAM antibody Table 1 clone 50 (scFv)
scFv: QVQLVQSGAEVKKPGASVKVSCKASGYTFTSYDINWVRQAPGQGLEWMGWINPNSGTTGYAQKFQGRVTMTRDTSTSTVYMELSSLRSEDTAVYYCARSPYYYYGMDVWGQGTTVTVSSGGGGSGGGGSGGGGSGGGGSDIQMTQSPSSLSASVGDRVTITCRASHFISRWVAWYQQKPGKAPKLLIYAASTLQSGVPSRFSGSGSGTDFTLTISSLQPEDFATYYCQQSYSGISFGPGTKVDIK

Reference: US20230235004A1
